The results in this text go back to patent US20090169546A1.

Experiment [1] has as its target T1, HMGB1 peptide 179-186 (human).
T1 sequence (peptide, biotinylated): EKSKKKKE
The experiment in a line: ELISA on biotinylated peptides captured on avidin.

The target is the same in experiment [2]. The experiment is described as follows: ELISA on biotinylated peptides captured on avidin, FIG. 5C. On the technique in general: In an ELISA, binding on a coated surface is turned into a signal by an enzyme label.
Experiment [3] addresses HMGB1 B-box peptide 108-138 (human). The experiment is described as follows: ELISA on biotinylated peptides captured on avidin.
Experiment [4] has the same target. The experiment is described as follows: ELISA on biotinylated peptides captured on avidin, FIG. 5C.

Results are given in words; binding and its absence hold for the method and conditions named. Some results given as binding are weak or reduced against the parent protein; the word gives no strength.

B1: anti-HMG1 antibody S16 (antibody, V domains shown)
VH: EVQLLESGGGLVQPGGSLRLSCAASGFTFSWYSMLWVRQAPGKGLEWVSYISPSGGFTNYADSVKGRFTISRDNSKNTLYLQMNSLRAEDTAVYYCARWDYNSGWYYDHWGQGTLVTVSS
VL: DIQMTQSPDTLSLSPGERATLSCRASQSVNSRNLAWYQQKPGQAPRLLIYGASTRATGIPDRFSGSVSGTEFTLTISSLQPDDFATYYCQQYNSYFTFGQGTKLEIK
Take B1: the binding entry in experiment [1] and in experiment [2] was “binds” throughout.

B2: anti-HMG1 antibody G4 (antibody, V domains shown)
VH: EVQLLESGGGLVQPGGSLRLSCAASGFTFSWYDMTWVRQAPGKGLEWVSSISPSGGYTKYADSVKGRFTISRDNSKNTLYLQMNSLRAEDTAVYYCTTEFYDYLDVWGKGTTVTVSS
VL: DIQMTQSPGTLSLSPGEGATLSCRASQSVSSTYLAWYQQKPGQAPRLLIYEASKRATGTPARFSGSGSGTDFTLSISSLEPEDFAVYYCQHRHNWPPQWTFGQGTKVEVK
Regarding B2, the binding result in experiment [3] and in experiment [4] was “binds” in each case.
